Assay [1] addresses ZitR protein of Lactococcus lactis subspecies cremoris strain MG1363, untagged recombinant (S2A, A4R, D8E) form (Lactococcus lactis subsp. cremoris strain MG1363) (UniProt A2RNS2). In words: SEC-MALS; 50 ul of fully purified protein at approximately 1-4 mg/ml on a KW-803 column (Shodex), 0.5 ml/min, supplemented with 1 mM EDTA; both purified.
Assay [2] shares this target. Nature of the assay: crystal structure; holo-ZitRMG, dimeric form, space group P41, 8 molecules (four dimers) and 16 Zn(II) in the asymmetric unit, 2.8 Å; both purified.

These are yes or no findings as the source states them, for the method shown. Some results given as binding are weak or reduced against the parent protein; the word gives no strength. Where a sequence is shown, tags or fusion partners need not be part of it.

B1: ZitR protein of Lactococcus lactis subspecies cremoris strain MG1363, untagged recombinant (S2A, A4R, D8E) form (natural protein, UniProt A2RNS2 1-145, looked up)
chain: MALRNQIEQFLGAIMQFAENKHEILLGECESNVKLTSTQEHILMILAAEVSTNARIAEQLKISPAAVTKALKKLQEQELIKSSRATNDERVVLWSLTEKAIPVAKEHAAHHEKTLSTYQELGDKFTDEEQKVISQFLSVLTEEFR
notes: A minor tetrameric form was also seen at the end of the purification; also called ZitRMG; holo-ZitRMG
Turning to B1, the binding result in assay [1] and in assay [2] was “binds” each time.

Values taken from paper PMC6372160, “Biophysical and structural characterization of a zinc-responsive repressor of the MarR superfamily” (PLoS ONE, 2019).
